Article PMC2522278
Where cells or extracts were used, other partners may take part. A negative result means that nothing was seen under these conditions. Protein sequences can lack the tags named with them. Construct, isoform or probe ends are uncertain for at least one entry.

Target: T1, PUM1-HD-TAP (Homo sapiens) (UniProt Q14671)
T1 sequence (looked up): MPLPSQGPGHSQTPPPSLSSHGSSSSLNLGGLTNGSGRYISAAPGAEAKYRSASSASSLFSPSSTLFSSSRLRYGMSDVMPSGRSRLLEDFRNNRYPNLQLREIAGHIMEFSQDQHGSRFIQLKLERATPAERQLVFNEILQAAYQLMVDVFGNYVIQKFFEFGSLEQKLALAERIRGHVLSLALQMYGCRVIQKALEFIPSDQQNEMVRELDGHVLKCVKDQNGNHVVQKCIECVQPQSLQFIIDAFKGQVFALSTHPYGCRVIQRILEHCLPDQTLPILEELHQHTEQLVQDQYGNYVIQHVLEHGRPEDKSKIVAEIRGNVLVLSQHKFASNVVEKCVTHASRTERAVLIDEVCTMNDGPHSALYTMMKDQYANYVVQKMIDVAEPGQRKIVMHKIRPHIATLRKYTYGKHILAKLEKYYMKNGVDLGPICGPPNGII
Experiment: competition with a labelled probe
Settings: 100-fold excess over biotinylated Dll1 3'-UTR; Biotinylated RNA plus HeLa S3 extract, streptavidin magnetic bead pull-down, anti-PAP immunoblot; protein in a lysate after overexpression; residues 746-1186; protein details: C-terminal TAP

| Sequence | binding result |
| --- | --- |
| AUACAAAAUA [R2 control RNA (UGU to ACA)] | no binding |
| AUUGUAAAUA [R1 competitor RNA] | binds |
